# Reference: the supplement of paper PMC6411743
# By UniProt entry, the sequences of proteins in these tests, tags left out. Where a name states a change or a piece, a line headed by the entry shows the natural chain unless it says otherwise.
# UniProt Q76FK4: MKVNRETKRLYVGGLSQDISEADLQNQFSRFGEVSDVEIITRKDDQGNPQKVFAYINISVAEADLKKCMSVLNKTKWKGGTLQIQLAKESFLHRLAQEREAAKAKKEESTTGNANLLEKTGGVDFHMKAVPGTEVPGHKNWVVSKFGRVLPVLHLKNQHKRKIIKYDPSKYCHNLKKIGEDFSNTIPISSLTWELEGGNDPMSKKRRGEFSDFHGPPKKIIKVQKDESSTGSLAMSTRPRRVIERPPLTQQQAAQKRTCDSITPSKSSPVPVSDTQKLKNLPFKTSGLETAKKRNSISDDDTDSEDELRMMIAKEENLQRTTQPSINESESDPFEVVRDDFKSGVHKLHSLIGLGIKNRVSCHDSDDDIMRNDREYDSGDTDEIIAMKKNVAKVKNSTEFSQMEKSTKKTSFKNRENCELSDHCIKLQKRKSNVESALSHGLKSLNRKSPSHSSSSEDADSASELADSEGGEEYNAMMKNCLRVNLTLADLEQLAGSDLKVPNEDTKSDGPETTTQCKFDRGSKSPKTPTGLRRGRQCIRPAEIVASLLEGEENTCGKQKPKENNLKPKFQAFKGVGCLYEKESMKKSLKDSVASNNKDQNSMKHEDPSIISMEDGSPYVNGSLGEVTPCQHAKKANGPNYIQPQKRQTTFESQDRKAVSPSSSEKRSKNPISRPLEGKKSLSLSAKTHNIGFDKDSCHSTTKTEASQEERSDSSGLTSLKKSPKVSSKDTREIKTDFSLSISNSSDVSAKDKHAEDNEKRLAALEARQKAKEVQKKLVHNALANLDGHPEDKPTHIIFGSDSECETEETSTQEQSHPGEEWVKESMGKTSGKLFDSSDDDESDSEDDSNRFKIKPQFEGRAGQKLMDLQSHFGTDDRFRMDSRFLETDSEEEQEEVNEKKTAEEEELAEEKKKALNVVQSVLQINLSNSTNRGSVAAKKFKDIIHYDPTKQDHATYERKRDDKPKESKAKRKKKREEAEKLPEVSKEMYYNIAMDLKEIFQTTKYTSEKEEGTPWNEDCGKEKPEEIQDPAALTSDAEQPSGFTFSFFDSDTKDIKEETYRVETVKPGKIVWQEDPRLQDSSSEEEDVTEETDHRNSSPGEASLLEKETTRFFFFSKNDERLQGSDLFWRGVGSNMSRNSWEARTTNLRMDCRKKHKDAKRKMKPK
# UniProt Q69YQ0: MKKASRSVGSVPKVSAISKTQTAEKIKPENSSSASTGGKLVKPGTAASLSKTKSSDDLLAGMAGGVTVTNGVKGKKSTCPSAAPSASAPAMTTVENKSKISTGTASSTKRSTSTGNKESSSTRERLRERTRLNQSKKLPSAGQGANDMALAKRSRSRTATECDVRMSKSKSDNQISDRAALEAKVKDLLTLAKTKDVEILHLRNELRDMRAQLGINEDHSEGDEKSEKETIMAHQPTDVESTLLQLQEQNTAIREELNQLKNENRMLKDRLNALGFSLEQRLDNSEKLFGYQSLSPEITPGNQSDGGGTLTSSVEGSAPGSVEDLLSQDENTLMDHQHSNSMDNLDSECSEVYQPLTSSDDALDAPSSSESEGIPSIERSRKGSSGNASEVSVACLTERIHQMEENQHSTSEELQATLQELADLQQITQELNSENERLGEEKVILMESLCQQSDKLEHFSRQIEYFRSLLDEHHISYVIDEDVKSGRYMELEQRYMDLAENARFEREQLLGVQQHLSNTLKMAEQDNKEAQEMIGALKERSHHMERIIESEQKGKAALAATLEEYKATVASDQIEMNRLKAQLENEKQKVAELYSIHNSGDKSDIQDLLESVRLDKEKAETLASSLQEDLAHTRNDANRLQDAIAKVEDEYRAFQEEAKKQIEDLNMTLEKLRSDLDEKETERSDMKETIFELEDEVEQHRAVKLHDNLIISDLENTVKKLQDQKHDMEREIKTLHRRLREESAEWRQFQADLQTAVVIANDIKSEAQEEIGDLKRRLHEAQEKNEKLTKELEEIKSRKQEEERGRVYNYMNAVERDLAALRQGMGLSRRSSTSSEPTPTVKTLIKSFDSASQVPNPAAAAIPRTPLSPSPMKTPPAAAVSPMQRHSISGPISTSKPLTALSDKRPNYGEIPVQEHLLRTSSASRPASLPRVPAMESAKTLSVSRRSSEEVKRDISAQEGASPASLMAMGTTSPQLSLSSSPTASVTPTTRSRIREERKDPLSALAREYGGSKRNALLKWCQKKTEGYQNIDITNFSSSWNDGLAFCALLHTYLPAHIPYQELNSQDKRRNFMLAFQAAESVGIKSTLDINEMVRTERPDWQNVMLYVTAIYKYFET
# UniProt Q9UQV4: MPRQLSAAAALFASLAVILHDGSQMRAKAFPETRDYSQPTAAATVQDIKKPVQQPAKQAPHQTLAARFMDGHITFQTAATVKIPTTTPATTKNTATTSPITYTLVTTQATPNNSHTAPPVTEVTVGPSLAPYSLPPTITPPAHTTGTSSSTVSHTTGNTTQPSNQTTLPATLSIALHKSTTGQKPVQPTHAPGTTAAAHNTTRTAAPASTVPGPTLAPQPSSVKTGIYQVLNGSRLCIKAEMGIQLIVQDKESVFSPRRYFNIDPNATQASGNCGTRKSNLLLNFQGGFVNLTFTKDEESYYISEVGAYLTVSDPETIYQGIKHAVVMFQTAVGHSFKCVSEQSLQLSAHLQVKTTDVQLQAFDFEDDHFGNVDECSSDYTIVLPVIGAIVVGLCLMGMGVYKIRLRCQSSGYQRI
# UniProt O43795: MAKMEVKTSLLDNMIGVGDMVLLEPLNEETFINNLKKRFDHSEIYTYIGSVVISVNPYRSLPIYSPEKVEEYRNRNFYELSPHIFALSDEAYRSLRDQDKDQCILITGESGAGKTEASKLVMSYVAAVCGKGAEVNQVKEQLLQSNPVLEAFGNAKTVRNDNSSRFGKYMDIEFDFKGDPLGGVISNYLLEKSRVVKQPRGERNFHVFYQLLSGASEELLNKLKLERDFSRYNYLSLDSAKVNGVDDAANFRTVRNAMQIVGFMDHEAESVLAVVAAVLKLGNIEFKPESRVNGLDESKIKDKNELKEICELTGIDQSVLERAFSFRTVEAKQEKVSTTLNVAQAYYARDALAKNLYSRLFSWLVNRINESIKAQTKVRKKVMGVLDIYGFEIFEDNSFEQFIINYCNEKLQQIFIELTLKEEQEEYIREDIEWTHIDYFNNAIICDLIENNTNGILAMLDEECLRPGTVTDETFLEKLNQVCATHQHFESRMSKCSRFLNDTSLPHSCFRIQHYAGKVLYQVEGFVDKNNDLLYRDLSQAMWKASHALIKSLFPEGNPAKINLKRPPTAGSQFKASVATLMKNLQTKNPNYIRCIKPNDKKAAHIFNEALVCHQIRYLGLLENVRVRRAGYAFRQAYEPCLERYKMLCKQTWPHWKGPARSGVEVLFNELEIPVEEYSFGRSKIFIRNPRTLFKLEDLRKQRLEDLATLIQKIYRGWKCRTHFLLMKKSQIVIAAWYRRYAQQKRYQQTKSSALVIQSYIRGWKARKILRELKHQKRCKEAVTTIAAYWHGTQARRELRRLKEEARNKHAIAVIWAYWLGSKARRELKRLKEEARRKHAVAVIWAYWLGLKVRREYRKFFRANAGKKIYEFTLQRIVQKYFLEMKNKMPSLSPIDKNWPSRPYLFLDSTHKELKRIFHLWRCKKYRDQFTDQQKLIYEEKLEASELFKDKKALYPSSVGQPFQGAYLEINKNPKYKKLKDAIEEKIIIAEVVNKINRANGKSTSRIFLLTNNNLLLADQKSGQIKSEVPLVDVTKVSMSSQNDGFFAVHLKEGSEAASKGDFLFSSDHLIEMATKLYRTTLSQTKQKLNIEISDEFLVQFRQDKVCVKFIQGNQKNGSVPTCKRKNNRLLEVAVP
# UniProt P61020: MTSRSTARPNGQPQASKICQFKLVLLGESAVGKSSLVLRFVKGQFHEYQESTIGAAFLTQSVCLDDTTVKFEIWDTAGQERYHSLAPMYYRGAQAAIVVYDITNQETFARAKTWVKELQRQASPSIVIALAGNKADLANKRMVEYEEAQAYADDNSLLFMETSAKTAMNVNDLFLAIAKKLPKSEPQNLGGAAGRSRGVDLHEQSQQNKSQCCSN
# UniProt Q07864, whole entry: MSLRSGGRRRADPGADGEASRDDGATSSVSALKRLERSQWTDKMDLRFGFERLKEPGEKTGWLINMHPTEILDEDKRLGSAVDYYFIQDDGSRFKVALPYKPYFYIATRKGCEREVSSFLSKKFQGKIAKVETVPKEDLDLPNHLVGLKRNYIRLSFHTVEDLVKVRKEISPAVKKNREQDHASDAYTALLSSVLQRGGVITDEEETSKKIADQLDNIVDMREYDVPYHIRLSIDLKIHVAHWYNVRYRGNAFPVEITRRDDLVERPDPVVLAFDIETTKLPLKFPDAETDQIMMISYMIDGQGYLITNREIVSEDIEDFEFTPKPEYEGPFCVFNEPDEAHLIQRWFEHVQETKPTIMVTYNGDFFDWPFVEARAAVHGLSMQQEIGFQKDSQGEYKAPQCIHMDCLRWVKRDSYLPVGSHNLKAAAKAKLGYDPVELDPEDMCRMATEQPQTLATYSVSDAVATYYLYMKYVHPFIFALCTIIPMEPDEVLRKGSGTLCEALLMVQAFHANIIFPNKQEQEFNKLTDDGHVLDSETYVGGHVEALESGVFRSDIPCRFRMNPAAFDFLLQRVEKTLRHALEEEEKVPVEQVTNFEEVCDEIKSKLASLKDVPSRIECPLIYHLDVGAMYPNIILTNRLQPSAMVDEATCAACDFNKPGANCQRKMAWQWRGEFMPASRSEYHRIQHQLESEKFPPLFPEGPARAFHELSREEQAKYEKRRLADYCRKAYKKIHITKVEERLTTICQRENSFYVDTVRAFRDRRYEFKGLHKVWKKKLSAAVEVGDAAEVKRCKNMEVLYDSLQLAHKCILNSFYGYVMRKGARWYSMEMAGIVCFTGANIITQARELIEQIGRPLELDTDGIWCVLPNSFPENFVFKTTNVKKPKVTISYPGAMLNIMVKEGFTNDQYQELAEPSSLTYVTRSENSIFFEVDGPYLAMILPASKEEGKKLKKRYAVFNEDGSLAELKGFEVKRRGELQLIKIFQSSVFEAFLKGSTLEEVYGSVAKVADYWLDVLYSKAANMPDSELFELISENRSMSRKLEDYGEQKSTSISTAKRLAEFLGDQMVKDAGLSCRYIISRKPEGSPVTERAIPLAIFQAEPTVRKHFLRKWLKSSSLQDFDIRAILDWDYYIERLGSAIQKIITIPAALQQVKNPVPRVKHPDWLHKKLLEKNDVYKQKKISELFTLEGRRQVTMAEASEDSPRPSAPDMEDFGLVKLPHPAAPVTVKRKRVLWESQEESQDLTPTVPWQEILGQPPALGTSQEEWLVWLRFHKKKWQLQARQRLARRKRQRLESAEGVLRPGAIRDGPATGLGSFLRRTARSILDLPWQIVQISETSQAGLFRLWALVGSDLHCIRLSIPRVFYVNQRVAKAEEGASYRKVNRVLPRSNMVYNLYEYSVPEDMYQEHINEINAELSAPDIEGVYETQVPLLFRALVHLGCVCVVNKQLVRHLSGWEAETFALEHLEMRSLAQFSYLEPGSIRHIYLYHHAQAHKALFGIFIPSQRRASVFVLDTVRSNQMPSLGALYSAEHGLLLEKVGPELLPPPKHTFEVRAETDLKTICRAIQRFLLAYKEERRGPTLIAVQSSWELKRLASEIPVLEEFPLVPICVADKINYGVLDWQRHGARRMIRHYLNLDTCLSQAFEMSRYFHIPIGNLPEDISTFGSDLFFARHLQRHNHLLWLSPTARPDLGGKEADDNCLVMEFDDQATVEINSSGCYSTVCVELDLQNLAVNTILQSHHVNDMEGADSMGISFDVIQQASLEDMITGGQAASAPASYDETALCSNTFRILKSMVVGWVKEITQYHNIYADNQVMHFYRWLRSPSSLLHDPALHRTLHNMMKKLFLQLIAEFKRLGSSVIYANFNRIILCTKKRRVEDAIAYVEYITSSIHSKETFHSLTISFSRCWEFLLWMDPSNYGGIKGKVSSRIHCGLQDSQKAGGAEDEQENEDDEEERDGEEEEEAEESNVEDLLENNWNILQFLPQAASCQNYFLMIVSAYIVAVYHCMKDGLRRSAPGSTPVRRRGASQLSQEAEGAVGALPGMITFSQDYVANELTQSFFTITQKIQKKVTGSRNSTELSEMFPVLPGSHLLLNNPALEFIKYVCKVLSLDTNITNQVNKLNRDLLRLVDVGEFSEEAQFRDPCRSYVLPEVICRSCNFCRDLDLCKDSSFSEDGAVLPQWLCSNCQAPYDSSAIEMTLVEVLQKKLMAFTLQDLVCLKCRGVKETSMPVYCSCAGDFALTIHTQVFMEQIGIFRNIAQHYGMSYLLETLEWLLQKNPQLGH
# UniProt O00217, whole entry: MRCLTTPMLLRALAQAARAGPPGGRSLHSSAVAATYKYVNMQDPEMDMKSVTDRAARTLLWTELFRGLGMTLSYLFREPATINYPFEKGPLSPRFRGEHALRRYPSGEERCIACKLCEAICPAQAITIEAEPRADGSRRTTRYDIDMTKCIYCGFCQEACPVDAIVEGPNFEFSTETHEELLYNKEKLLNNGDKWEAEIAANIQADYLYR
# ± gives the standard deviation of the averaged measurements. The list shows a part of the results.
# Compound: Nc1nc2c(ncn2[C@@H]2O[C@H](COP(=O)(O)OP(=O)(O)OP(=O)(O)O)[C@@H](O)[C@H]2O)c(=O)[nH]1 [guanosine triphosphate]
# Test: NP40-soluble protein abundance relative to vehicle (solubility fold change) (ratio); higher = more soluble protein in presence of GTP
# Procedure, shortened: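 Data come from three independent experiments in which Dounce-homogenised Jurkat crude lysate was treated at eight concentrations from 0.1 to 10 mM. Treatment ran 10 min at room temperature and then 3 min at 37 °C, after which 0.8% NP40 and benzonase were added for 60 min at 4 °C before ultracentrifugation. The supernatant underwent TMT labelling and LC-MS/MS, and vsn-normalised intensities were expressed as fold change against the detergent-processed vehicle in each replicate.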
Target,NP40-soluble protein abundance (concentration: 0.1mM),NP40-soluble protein abundance (concentration: 0.5mM),NP40-soluble protein abundance (concentration: 1mM),NP40-soluble protein abundance (concentration: 2mM),NP40-soluble protein abundance (concentration: 4mM),NP40-soluble protein abundance (concentration: 6mM),NP40-soluble protein abundance (concentration: 8mM),NP40-soluble protein abundance (concentration: 10mM)
F5H101 and related entries (UniProt Q76FK4),0.967 ± 0.062,0.964 ± 0.099,1.03 ± 0.07,1.02 ± 0.1,1.06 ± 0.099,1.1 ± 0.1,1.17 ± 0.038,1.22 ± 0.096
F8WAN1 and related entries (UniProt Q69YQ0),1.03 ± 0.076,1.09 ± 0.089,1.14 ± 0.047,1.08 ± 0.077,1.13 ± 0.064,1.14 ± 0.14,1.26 ± 0.16,1.26 ± 0.086
E7ETP9 and related entries (UniProt Q9UQV4),0.882 ± 0.15,0.796 ± 0.068,0.898 ± 0.14,0.842 ± 0.13,0.831 ± 0.13,0.833 ± 0.11,0.818 ± 0.088,0.881 ± 0.17
G3V502 and related entries (UniProt Q9Y5J7),1.047 ± 0.0099,1.01 ± 0.12,1.08 ± 0.066,1.01 ± 0.094,1.05 ± 0.12,1.01 ± 0.12,1.08 ± 0.05,1.19 ± 0.034
E7EPP6 and related entries (UniProt O14757),1.046 ± 0.0087,1.05 ± 0.034,0.939 ± 0.025,0.957 ± 0.1,0.9241 ± 0.0074,0.934 ± 0.054,0.902 ± 0.021,0.888 ± 0.057
F5H4R1 and related entries (UniProt Q9Y6R4),1.08 ± 0.07,1.09 ± 0.11,1 ± 0.089,1.05 ± 0.15,1.06 ± 0.11,0.97 ± 0.12,0.964 ± 0.064,0.98 ± 0.12
G3V4K3 and related entries (UniProt Q9H9C1),0.961 ± 0.06,1.01 ± 0.06,0.913 ± 0.02,0.895 ± 0.045,0.896 ± 0.034,0.926 ± 0.058,0.93 ± 0.053,0.93 ± 0.086
E9PCH4 and related entries (UniProt Q8TEU7+E9PCH4),0.967 ± 0.021,0.9825 ± 0.0063,0.968 ± 0.023,0.96 ± 0.02,0.981 ± 0.016,0.969 ± 0.038,1.0058 ± 0.00029,0.9592 ± 0.0034
E9PDF6 and related entries (UniProt O43795),1.44 ± 0.25,2.35 ± 0.38,2.32 ± 0.37,2.41 ± 0.43,2.4 ± 0.41,2.37 ± 0.38,2.33 ± 0.3,2.21 ± 0.26
E7EVH9 and related entries (UniProt Q08623),1 ± 0.035,0.921 ± 0.058,1.03 ± 0.12,0.97 ± 0.15,0.928 ± 0.15,0.894 ± 0.072,0.901 ± 0.12,0.934 ± 0.1
E9PEQ6 and related entries (UniProt Q9UNP9),0.954 ± 0.041,1.03 ± 0.058,0.971 ± 0.07,0.964 ± 0.049,0.936 ± 0.051,0.954 ± 0.041,0.985 ± 0.022,0.957 ± 0.051
F8VVZ0 and related entries (UniProt P61020),0.989 ± 0.017,1.01 ± 0.055,0.944 ± 0.095,0.932 ± 0.081,0.891 ± 0.023,0.928 ± 0.12,0.903 ± 0.14,0.87 ± 0.065
F5H1D6 and related entries (UniProt Q07864),1.12 ± 0.086,1.11 ± 0.049,1.09 ± 0.071,1.14 ± 0.047,1.1 ± 0.067,1.11 ± 0.023,1.14 ± 0.06,0.994 ± 0.069
F8VU90 and related entries (UniProt Q9NYL4),0.972 ± 0.06,0.968 ± 0.052,1.04 ± 0.018,1.03 ± 0.065,1.05 ± 0.033,0.996 ± 0.078,0.922 ± 0.041,0.995 ± 0.065
E9PMJ2 and related entries (UniProt Q9BPY3),1.01 ± 0.013,0.982 ± 0.061,0.991 ± 0.09,1 ± 0.07,1.01 ± 0.012,0.939 ± 0.085,0.933 ± 0.059,0.9487 ± 0.0082
F5GWJ6 and related entries (UniProt Q9H3J6),0.955 ± 0.11,0.97 ± 0.081,1.16 ± 0.17,1.18 ± 0.027,1.21 ± 0.12,1.29 ± 0.097,1.24 ± 0.032,1.48 ± 0.11
F8W7Q4 and related entries (UniProt Q96A26),0.934 ± 0.1,0.968 ± 0.15,0.957 ± 0.085,0.893 ± 0.088,0.84 ± 0.1,0.886 ± 0.11,0.831 ± 0.11,0.941 ± 0.091
E9PP50 and related entries (UniProt P23528),0.893 ± 0.054,0.906 ± 0.066,0.894 ± 0.066,0.823 ± 0.076,0.819 ± 0.068,0.839 ± 0.078,0.84 ± 0.066,0.821 ± 0.081
F5GZS6 and related entries (UniProt P08195),0.911 ± 0.091,0.898 ± 0.085,0.895 ± 0.078,0.851 ± 0.075,0.867 ± 0.081,0.865 ± 0.073,0.846 ± 0.08,0.855 ± 0.08
E9PPW7 and related entries (UniProt O00217),1.05 ± 0.13,1.12 ± 0.15,1.11 ± 0.18,1.09 ± 0.12,1.08 ± 0.095,1.09 ± 0.13,1.18 ± 0.21,1.1 ± 0.13
F8WE49 and related entries (UniProt Q9NS91),1.07 ± 0.021,1.07 ± 0.026,1.1 ± 0.052,1.12 ± 0.057,1.14 ± 0.044,1.14 ± 0.043,1.21 ± 0.17,1.18 ± 0.086
E7EQV9 and related entries (UniProt P61313),1.04 ± 0.065,1.09 ± 0.14,1.08 ± 0.22,1.03 ± 0.3,0.902 ± 0.3,0.842 ± 0.25,0.571 ± 0.19,0.897 ± 0.28

# Record cards (already shown).
# F5H1D6 and related entries (UniProt Q07864) as listed: NP40-soluble protein abundance (concentration: 0.1mM): 1.12 ± 0.086; NP40-soluble protein abundance (concentration: 0.5mM): 1.11 ± 0.049; NP40-soluble protein abundance (concentration: 1mM): 1.09 ± 0.071; NP40-soluble protein abundance (concentration: 2mM): 1.14 ± 0.047; NP40-soluble protein abundance (concentration: 4mM): 1.1 ± 0.067; NP40-soluble protein abundance (concentration: 6mM): 1.11 ± 0.023; NP40-soluble protein abundance (concentration: 8mM): 1.14 ± 0.06; NP40-soluble protein abundance (concentration: 10mM): 0.994 ± 0.069
# G3V4K3 and related entries (UniProt Q9H9C1) as listed: NP40-soluble protein abundance (concentration: 0.1mM): 0.961 ± 0.06; NP40-soluble protein abundance (concentration: 0.5mM): 1.01 ± 0.06; NP40-soluble protein abundance (concentration: 1mM): 0.913 ± 0.02; NP40-soluble protein abundance (concentration: 2mM): 0.895 ± 0.045; NP40-soluble protein abundance (concentration: 4mM): 0.896 ± 0.034; NP40-soluble protein abundance (concentration: 6mM): 0.926 ± 0.058; NP40-soluble protein abundance (concentration: 8mM): 0.93 ± 0.053; NP40-soluble protein abundance (concentration: 10mM): 0.93 ± 0.086
